No constants are given. Whether binding was seen depends on the method and setting. Binding seen in cells or lysates may run through a third protein. These calls come from enrichment with a bait or labelling near it, and not all partners need be listed. Where a sequence is shown, tags or fusion partners need not be part of it.
Biological target: T1, GST-MSMEG_2731 (M. smegmatis) (UniProt A0QVX6)
T1 sequence: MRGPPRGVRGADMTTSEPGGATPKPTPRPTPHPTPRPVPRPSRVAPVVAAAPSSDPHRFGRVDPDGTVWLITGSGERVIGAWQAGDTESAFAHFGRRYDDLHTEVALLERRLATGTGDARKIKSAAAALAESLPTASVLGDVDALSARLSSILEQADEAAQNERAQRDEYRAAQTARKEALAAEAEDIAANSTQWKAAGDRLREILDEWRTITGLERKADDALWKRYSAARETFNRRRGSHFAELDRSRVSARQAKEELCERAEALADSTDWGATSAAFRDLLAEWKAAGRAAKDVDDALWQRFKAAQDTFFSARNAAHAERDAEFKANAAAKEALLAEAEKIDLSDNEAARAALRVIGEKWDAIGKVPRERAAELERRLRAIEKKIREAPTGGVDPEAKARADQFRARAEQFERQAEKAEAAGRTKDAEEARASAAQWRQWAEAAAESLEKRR
Assay: affinity purification with mass spectrometry; purified GST-MSMEG_2731 or GST incubated with M. smegmatis cell lysate 4 h in 50 mM Tris-HCl pH 7.4, 150 mM NaCl, 1 mM EDTA, 0.1% Triton X-100; glutathione-Sepharose 4B; bands excised, LC-MS/MS; only the target purified

Amino acid sequences for entries named in this document (tags omitted).
UniProt A0QYY6: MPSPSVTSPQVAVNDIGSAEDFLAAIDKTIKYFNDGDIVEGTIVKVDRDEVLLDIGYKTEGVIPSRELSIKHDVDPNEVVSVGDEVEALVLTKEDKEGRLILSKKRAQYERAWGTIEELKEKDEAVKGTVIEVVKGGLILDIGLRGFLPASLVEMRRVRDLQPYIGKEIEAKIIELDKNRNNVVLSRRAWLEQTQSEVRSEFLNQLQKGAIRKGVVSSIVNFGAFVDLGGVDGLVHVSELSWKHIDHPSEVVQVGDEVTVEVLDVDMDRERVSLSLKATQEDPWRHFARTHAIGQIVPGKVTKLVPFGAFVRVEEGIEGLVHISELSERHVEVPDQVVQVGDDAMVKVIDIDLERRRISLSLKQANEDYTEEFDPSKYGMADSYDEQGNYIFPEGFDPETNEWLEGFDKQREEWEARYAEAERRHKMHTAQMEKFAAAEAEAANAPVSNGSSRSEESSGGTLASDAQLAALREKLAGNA

binding	Substance
binds	30S ribosomal protein S1 [Mycobacterium smegmatis str. MC2 155], endogenous (from UniProt A0QYY6 1-479)
binds	translation initiation factor IF-2
